Reference: the supplement of paper PMC3334620
In all, about 33,000 sequences were measured (“E-score (-0.5 to 0.5)”: median about -0.0014, highest 2% from about 0.25 on). This is one part of the list.

target: T1, Cad1 (UniProt P24813); test: PBM E-score (8-mer binding enrichment) (E-score (-0.5 to 0.5)); higher = stronger / more preferred TF binding; settings: protein concentration: 100 nM; construct: GST-full length
T1 sequence: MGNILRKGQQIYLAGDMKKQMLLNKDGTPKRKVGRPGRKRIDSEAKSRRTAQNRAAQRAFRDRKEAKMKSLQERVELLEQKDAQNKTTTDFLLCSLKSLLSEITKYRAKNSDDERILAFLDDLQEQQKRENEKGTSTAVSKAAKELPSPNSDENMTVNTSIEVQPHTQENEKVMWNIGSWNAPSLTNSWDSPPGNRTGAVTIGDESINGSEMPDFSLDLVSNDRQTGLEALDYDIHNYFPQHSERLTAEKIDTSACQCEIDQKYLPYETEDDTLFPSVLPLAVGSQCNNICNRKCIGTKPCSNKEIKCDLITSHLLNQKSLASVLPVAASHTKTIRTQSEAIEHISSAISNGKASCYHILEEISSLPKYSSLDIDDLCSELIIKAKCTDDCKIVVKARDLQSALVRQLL
Method: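 Universal 'all 10-mer' protein binding microarrays (Agilent AMADID 015681) probed with GST-tagged S. cerevisiae TFs (full-length or DBD) made by in vitro transcription/translation (PURExpress), about 100-200 nM. Bound TF was detected with fluorescent anti-GST. Each ungapped 8-mer (which stands for itself and its reverse complement) is scored by the PBM enrichment score (E-score), a modified Wilcoxon-Mann-Whitney statistic from -0.5 to +0.5, computed with the Universal PBM Analysis Suite. Scale: above 0.35 generally sequence-specific binding.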

Row | Sequence | PBM E-score
1 | CGTATCGC | 0.0665
2 | TACAGCCA | -0.0132
3 | TTCCACAA | 0.0931
4 | CGTAATAA | 0.12
5 | ATGCAGGC | -0.0746
6 | CGATCCAC | -0.131
7 | AAAGAGGC | -0.201
8 | TGGCGTAA | -0.0625
9 | CCTCAAGG | -0.0591
10 | CAAGGCAG | -0.0882
11 | AGGCGTGA | -0.107
12 | GAGCCGAA | -0.00606
13 | ACTGACAC | -0.0887
14 | AAGGGAAT | -0.134
15 | ATTCCACC | 0.0814
16 | AAGGATTG | 0.0588
17 | ACATCGTG | 0.0175
18 | AGCACCAA | 0.0274
19 | AACCGATC | -0.0978
20 | GTCACATA | 0.0592
21 | CATCTCAC | 0.0163
22 | CTCTCTCA | -0.107
23 | CTCCGGCC | -0.379
24 | CACACACC | 0.0169
25 | CCATCCGC | 0.0114

Row | Sequence | PBM E-score
26 | AAGTTTGT | 0.0981
27 | AGACAGCC | -0.132
28 | CCCTTTAA | -0.135
29 | TATACGGA | -0.17
30 | AAGTTCTC | 0.0778
31 | AGTAAGCG | 0.338
32 | TATGCTAA | -0.0457
33 | CCACCGTC | -0.242
34 | GCCTTACA | -0.277
35 | CGGATCAC | 0.156
36 | ATGCCGTA | 0.0523
37 | CGCATTGC | 0.165
38 | AAGTACCG | 0.0375
39 | CACGCCTG | -0.0998
40 | CTGAACGA | -0.0121
41 | ATTACTAG | 0.0167
42 | GAAGGGGA | -0.16
43 | ATTCCTGG | -0.134
44 | GCGGCCAA | -0.0464
45 | GGCTTGTA | -0.12
46 | ACATGGGA | -0.027
47 | AGGCTCCA | -0.147
48 | CATATTAG | 0.179
49 | CCCGTAAA | -0.101
50 | CACAATTA | 0.00794

Row | Sequence | PBM E-score
51 | ACACGGAC | 0.174
52 | GACCGGTC | -0.0358
53 | GTATGTAA | 0.0891
54 | GACCTTCC | -0.166
55 | CCGCTCCA | -0.145
56 | ACCCACCG | 0.0282
57 | GATAAGCC | -0.0804
58 | AGCGCACA | 0.0155
59 | GTAATCAC | 0.229
60 | CCCCGTTC | -0.128
61 | AACCGTAC | -0.0348
62 | CACCGAAC | -0.0664
63 | ACGTTAAT | 0.13
64 | CACGCGTG | 0.152
65 | TACCCAGA | 0.109
66 | CCGATCAG | 0.0497
67 | CGTAGTTA | 0.119
68 | ATCGGGAA | -0.0621
69 | CCATTAGC | -0.00824
70 | CGATTCAG | 0.0774
71 | GCTGTCTA | 0.0236
72 | AATTGGTA | 0.112
73 | CGAGTTAA | 0.187
74 | CACTGAAG | 0.0186
75 | CGGGCCTC | 0.0884

An excerpt of these results, as tab-separated lines.
Row	Sequence	PBM E-score
59	GTAATCAC	0.229
60	CCCCGTTC	-0.128
68	ATCGGGAA	-0.0621
69	CCATTAGC	-0.00824
71	GCTGTCTA	0.0236
72	AATTGGTA	0.112
75	CGGGCCTC	0.0884

Remaining list, next part

Row | Sequence | PBM E-score
76 | CAAGGTCG | 0.0203
77 | AAGAGTCT | -0.0688
78 | ACGACAAA | 0.205
79 | CTTCAGCC | -0.0251
80 | ACGTAGCG | -0.0632
81 | AAAACACC | -0.0358
82 | AGTCGATC | -0.0812
83 | TCCTAACA | -0.00505
84 | TACCACAA | 0.109
85 | AGCAGGCA | -0.0719
86 | TAGCCTCA | 0.00759
87 | CTCAATCC | 0.0347
88 | GGCGACTA | 0.00513
89 | ACGCCAGC | -0.0379
90 | CGCTTGCA | 0.022
91 | CGCCGCAG | -0.0708
92 | ATTTTACA | -0.0642
93 | CTCCCCTA | -0.234
94 | CTTCGTGC | -0.0684
95 | AGGGCGTC | -0.0327
96 | ATGGGCCC | -0.176
97 | CAACGGAC | -0.00286
98 | AGACTTCA | -0.223
99 | AATAAGAA | 0.252
100 | AAAGAATA | 0.0756

Row | Sequence | PBM E-score
101 | GTCCTCTA | -0.217
102 | TCCCGACA | 0.0229
103 | TACGTGCA | -0.0253
104 | CACATCAA | 0.0379
105 | GGGTCGTA | -0.236
106 | GACACGAA | 0.129
107 | GAATCAAC | 0.264
108 | AGCTCTAG | -0.0306
109 | CATGGGTC | -0.0891
110 | GCGTTATA | -0.0154
111 | GACTCCCA | -0.266
112 | CCTTGAAG | -0.055
113 | ACCCCATA | -0.0838
114 | AGAAGGAT | -0.277
115 | TAGGGGAA | -0.0561
116 | ACAGTCCC | -0.188
117 | GCCATTAA | 0.089
118 | CCGAATCA | -0.128
119 | GCATGCAC | 0.0754
120 | AAGTGAAG | -0.141
121 | AAACGGCT | -0.224
122 | ACTATCAT | 0.143
123 | ATGGAGTG | -0.162
124 | TCAATCAA | 0.0737
125 | AGGTTAGA | -0.223

Row | Sequence | PBM E-score
126 | AGTTCACA | 0.0372
127 | CGCCAGGC | -0.0333
128 | CTTTTCCA | -0.284
129 | AGTACTCG | 0.092
130 | ACTCCGCT | -0.102
131 | CGTGCCTA | -0.00024
132 | CTCAGGCC | -0.301
133 | ATCCCCCC | -0.44
134 | ACCGCAAC | 0.196
135 | CGTATATC | 0.00891
136 | AGATGAGC | 0.0232
137 | TATGTAGA | -0.0427
138 | CACGAGGA | 0.0402
139 | CCGAGCTA | -0.0872
140 | CATGCAAG | -0.205
141 | GGAACGGA | -0.00579
142 | AAAAGTGA | -0.133
143 | ATATTTAC | 0.228
144 | GAGTCATA | -0.0502
145 | ATGGTGGC | -0.284
146 | CTACAGAG | -0.215
147 | GGAATATA | 0.105
148 | GCACGCAA | -0.146
149 | CGCCTAGC | -0.225
150 | CGCCTACA | -0.0714

Row | Sequence | PBM E-score
151 | AGTAACAA | 0.082
152 | ATACTAAA | 0.231
153 | CGAATCTC | 0.0764
154 | AGCCAAAC | 0.0147
155 | ATCGTGAG | -0.0704
156 | CGCGTCAA | 0.0721
157 | GGCTTTAA | -0.12
158 | CTGCGTCC | -0.0351
159 | CAATCGGG | -0.0983
160 | GAGATCTC | -0.0139
161 | GGCATTAC | 0.152
162 | TAGAGACA | -0.0387
163 | AGCAAATG | -0.0687
164 | ATCCTGTA | 0.0786
165 | AGCTAAAG | -0.0415
166 | GGCTGCGA | 0.0509
167 | CAGTCCGC | 0.0506
168 | CACCGTGG | -0.018
169 | AAACCTTA | 0.111
170 | AAACTATA | 0.0672
171 | ACTACGTG | -0.201
172 | CATCAAAG | -0.121
173 | ATGCGAGA | 0.0542
174 | ACGACGCC | -0.325
175 | CAAATACC | 0.0302

A second format for some results above:
ATTTTACA
  PBM E-score = -0.0642
TATGTAGA
  PBM E-score = -0.0427

Carrying on:

Row | Sequence | PBM E-score
176 | CCGCTGCC | -0.124
177 | GGTAGTTA | -0.145
178 | ACGCTGGG | -0.303
179 | CGGCGGGC | 0.0186
180 | GTGATTCA | -0.0138
181 | CGATGGAG | -0.0257
182 | CAGATCAC | -0.129
183 | CGTACGAC | -0.17
184 | GGAGTCGA | -0.141
185 | CGTAATTA | 0.249
186 | ATGGACGG | 0.0931
187 | AGGCAAGG | -0.224
188 | CGGCAGGC | -0.0773
189 | ACATATAC | 0.0911
190 | ACTGGGAT | -0.0364
191 | AGGGATAG | -0.164
192 | AGATCGGC | 0.0265
193 | CTAGTTCA | -0.00071
194 | ATTTAGAC | 0.0309
195 | GCGCGTAA | 0.293
196 | AGTCACAC | -0.0012
197 | TACTGATA | 0.209
198 | AGATGTAG | -0.151
199 | CTTTTTGC | 0.145
200 | GCAGCGTA | -0.18

5 entries picked at random from the list so far, as already listed:
Row | Sequence | PBM E-score
185 | CGTAATTA | 0.249
189 | ACATATAC | 0.0911
31 | AGTAAGCG | 0.338
197 | TACTGATA | 0.209
126 | AGTTCACA | 0.0372

Remaining list, next part

Row | Sequence | PBM E-score
201 | AAAGGCCT | -0.043
202 | AAAGAACC | 0.0643
203 | CTGACCGA | -0.03
204 | GCTCTCCA | -0.241
205 | AACTTTCA | 0.0704
206 | AGAAAGAA | 0.0147
207 | GCTGCTGA | 0.178
208 | AGGTGCGA | -0.0943
209 | AACCCCCG | -0.392
210 | AACCCCAG | -0.243
211 | AACTGCGA | -0.0339
212 | ATTTTTCC | 0.0266
213 | CTGGAAGA | 0.0677
214 | CCAACGCC | -0.0448
215 | ATTGCAAC | -0.0158
216 | AAACCGGG | -0.0627
217 | TAGATAGA | 0.0637
218 | TCATTCGA | 0.144
219 | CAAGCTGG | -0.192
